Results published in PMC5021521, “Coordinated recruitment of Spir actin nucleators and myosin V motors to Rab11 vesicle membranes” (eLife, 2016).

Target: T1, GST-Rab11a-Q70L (UniProt P62490)
T1 sequence: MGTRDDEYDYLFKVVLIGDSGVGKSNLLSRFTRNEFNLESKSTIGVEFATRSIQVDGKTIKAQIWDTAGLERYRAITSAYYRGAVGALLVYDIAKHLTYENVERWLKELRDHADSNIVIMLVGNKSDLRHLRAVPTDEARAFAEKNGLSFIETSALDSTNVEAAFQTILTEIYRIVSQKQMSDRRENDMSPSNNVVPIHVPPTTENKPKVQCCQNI
Experiment: pull-down; 65 ug GST-Rab11a-Q70L on GSH-Sepharose 4B beads; lysates of HEK293 cells co-transfected with Myc-Spir-2-FL, mStrawberry-FMN2-FH2-FSI and eGFP-MyoVa-D-FL or eGFP-MyoVa-D-Q1753R; 2 hr at 4°C; immunoblot; only the target purified

Row | binding | Substance
1 | no binding | GFP-MyoVa-Q1753R
2 | binds | GFP-MyoVa-FL

Results are given in words; binding and its absence hold for the method and conditions named. In cells and extracts the contact can be indirect. Binding calls can cover weak binding; strength is not graded here. Tags and fused reporters may be left off the sequences shown.
